In publication PMC3464206:
Results are given in words; binding and its absence hold for the method and conditions named. Binding seen in cells or lysates may run through a third protein. A yes stands for co-enrichment or nearness to the bait. Other partners may have been found.

The chains behind the UniProt entries cited, without tags or fusion partners.
UniProt P48722: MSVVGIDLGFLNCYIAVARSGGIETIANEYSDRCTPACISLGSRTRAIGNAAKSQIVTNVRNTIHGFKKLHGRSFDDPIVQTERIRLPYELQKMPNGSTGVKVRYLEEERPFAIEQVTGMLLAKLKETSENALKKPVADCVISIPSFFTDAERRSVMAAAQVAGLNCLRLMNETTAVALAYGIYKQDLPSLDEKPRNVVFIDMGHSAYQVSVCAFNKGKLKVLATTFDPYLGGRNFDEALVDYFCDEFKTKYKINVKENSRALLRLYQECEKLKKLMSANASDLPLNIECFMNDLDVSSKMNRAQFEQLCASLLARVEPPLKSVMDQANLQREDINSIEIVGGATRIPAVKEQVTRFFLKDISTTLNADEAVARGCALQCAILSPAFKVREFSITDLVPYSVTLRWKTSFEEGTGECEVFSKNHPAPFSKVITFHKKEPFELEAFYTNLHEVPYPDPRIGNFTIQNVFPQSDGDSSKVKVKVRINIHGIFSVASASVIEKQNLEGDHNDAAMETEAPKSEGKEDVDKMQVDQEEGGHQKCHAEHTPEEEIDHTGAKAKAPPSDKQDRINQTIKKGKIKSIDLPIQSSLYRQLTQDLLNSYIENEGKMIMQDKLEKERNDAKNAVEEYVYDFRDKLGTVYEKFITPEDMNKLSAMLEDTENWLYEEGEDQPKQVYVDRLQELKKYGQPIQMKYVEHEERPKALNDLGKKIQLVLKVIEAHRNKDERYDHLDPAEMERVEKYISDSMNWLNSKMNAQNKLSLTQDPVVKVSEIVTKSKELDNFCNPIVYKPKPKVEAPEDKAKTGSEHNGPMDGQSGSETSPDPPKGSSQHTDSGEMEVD
UniProt P00342: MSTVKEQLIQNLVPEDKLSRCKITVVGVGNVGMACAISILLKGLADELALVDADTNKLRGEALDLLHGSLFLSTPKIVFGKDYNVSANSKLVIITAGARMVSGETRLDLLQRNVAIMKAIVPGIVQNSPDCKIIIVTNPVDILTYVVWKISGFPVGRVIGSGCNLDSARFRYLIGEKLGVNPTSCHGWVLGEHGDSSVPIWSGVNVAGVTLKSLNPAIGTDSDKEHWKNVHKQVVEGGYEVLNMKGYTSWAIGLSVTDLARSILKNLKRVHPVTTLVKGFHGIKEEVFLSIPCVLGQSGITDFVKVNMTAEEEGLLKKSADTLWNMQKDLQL
UniProt Q61166: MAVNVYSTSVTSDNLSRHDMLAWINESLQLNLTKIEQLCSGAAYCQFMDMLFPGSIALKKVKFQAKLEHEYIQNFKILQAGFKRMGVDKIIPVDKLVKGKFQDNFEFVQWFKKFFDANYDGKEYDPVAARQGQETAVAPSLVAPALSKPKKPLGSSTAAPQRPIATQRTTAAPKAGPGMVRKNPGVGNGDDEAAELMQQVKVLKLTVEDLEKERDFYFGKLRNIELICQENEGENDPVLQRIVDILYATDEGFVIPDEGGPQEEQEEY

Target: T1, recombinant RABL2 (isoform 2), conjugated to agarose (mouse) (UniProt E9Q9D5)
T1 sequence: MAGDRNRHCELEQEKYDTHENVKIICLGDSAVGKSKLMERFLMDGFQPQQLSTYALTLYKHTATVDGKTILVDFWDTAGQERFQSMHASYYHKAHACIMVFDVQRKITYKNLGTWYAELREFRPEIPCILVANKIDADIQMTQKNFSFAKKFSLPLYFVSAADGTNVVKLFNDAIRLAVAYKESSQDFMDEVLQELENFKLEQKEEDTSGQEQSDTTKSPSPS
Test: affinity purification with mass spectrometry; recombinant RABL2 on agarose loaded with GTP (compared with GDP-loaded), incubated with adult mouse testis extracts; bands preferentially bound to GTP-RABL2 cut from 12% SDS-PAGE gels, nano-LC ESI MS/MS; only the target purified

binding, binds:
HSPA4L (from UniProt P48722 1-838)
LDHC (from UniProt P00342 1-332)
microtubule plus end trafficking protein EB1 (from UniProt Q61166 1-268)
